Reference: paper doi:10.1101/2022.09.09.507380
Where two headings read alike, the source gives them in different places. These are yes or no findings as the source states them, for the method shown. For some of these results: In cells and extracts the contact can be indirect. Some results given as binding are weak or reduced against the parent protein; the word gives no strength. For some of these results: Where a sequence is shown, tags or fusion partners need not be part of it. Each block holds one molecule with its values, some of them ahead of it.

Sequences of proteins named here, by UniProt entry; tags and fusion partners are left off.
UniProt P62141: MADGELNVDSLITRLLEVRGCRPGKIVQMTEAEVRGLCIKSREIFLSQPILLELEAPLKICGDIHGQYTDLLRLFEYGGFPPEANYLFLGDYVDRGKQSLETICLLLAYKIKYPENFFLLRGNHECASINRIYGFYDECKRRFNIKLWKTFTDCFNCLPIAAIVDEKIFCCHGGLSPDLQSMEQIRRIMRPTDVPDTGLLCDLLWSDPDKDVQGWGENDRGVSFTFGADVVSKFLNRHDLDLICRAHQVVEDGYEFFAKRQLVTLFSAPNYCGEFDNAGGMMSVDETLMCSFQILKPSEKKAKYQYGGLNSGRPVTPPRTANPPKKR
UniProt O75901: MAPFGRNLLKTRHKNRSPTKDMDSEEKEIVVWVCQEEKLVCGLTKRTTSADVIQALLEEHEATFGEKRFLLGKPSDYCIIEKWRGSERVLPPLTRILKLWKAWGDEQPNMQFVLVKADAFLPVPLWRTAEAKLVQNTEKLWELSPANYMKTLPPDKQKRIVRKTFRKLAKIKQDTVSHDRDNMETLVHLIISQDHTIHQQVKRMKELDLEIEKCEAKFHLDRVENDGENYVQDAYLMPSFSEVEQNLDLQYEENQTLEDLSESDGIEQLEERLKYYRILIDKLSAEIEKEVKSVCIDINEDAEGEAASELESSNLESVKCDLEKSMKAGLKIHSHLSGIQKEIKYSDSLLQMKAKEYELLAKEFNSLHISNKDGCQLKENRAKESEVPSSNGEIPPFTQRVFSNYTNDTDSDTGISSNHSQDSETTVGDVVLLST
UniProt Q12972: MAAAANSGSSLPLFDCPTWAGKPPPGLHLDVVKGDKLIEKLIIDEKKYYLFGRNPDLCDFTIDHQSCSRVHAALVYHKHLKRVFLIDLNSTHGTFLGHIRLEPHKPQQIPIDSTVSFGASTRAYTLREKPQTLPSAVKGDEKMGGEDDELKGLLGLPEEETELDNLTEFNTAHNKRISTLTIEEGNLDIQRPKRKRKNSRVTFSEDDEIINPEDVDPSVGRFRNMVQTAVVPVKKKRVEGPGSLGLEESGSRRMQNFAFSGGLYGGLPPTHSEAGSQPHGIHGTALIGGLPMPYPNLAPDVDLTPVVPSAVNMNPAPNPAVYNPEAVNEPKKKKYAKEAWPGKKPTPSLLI
UniProt Q92624: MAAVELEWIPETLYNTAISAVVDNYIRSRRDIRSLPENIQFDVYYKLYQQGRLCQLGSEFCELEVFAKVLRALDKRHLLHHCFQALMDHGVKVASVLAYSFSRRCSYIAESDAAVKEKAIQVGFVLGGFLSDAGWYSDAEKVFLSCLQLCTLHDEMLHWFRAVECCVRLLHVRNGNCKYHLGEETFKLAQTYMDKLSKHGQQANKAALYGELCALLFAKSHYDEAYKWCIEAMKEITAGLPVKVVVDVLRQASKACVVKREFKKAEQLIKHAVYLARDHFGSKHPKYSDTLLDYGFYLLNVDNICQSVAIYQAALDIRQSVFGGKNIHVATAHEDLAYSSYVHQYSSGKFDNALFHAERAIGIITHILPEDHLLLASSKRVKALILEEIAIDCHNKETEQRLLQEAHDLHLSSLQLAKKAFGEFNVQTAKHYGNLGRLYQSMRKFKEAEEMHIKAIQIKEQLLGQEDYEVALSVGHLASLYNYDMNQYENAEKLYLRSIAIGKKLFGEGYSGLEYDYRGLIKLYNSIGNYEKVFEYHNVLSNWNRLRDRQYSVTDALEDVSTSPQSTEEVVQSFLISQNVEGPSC

Assays:
[1] = target: PP1γ fused to the N-terminal half of YFP (aa 1-154) (human) (UniProt P36873); experiment: split reporter
[2] = target: mCherry-NLS-LacR-PP1ɣ (human) (UniProt P36873); experiment: two-hybrid
[3] = target: GFP-tagged PP1ɣ (HeLa/BAC cell line hPPP1CC-LAP) (human) (UniProt P36873); experiment: co-IP
[4] = target: GFP-tagged PP1β (HeLa/BAC cell line mPPP1CB-LAP) (mouse) (UniProt P62141); experiment: co-IP
[5] = target: GFP-tagged c20orf27 (wild type) (UniProt Q9GZN8); experiment: co-IP
GFP-tagged RASSF9 = GFP-tagged RASSF9 (UniProt O75901); experiment: co-IP
GFP-tagged RASSF7 = target: T1, GFP-tagged RASSF7 (UniProt Q02833); experiment: co-IP
T1 sequence: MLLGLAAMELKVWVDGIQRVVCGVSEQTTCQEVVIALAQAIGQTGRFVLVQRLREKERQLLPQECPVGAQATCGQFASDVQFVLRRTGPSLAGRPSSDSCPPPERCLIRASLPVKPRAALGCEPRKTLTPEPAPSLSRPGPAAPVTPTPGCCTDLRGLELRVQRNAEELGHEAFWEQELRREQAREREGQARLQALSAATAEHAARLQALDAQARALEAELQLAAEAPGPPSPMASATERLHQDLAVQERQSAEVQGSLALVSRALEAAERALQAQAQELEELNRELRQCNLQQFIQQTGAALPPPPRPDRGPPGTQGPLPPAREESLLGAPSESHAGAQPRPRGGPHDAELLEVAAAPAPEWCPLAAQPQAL

[6] = target: GFP-tagged PP1ɣ (HeLa/BAC cell line hPPP1CC-LAP) (human) (UniProt P36873); experiment: co-IP; remark: listed apart in the source
[7] = target: GFP-tagged PP1β (HeLa/BAC cell line mPPP1CB-LAP) (mouse) (UniProt P62141); experiment: co-IP; remark: listed apart in the source

Molecule: c20orf27 KAGA mutant fused to the C-terminal half of YFP (aa 155-238) (from UniProt Q9GZN8 1-174)
binding [1]: no binding

Molecule: GFP-tagged c20orf27 KAGA mutant (from UniProt Q9GZN8 1-174)
binding [2]: no binding

Molecule: NIPP1 (from UniProt Q12972 1-351)
binding [3]: binds | binding [4]: binds

Molecule: APPBP2 (amyloid beta precursor protein binding protein 2) (from UniProt Q92624 1-585)
binding [5]: binds

Second part, the molecule after the results:

binding [1]: binds
Molecule: c20orf27 (wild type) fused to the C-terminal half of YFP (aa 155-238) (from UniProt Q9GZN8 1-174)

binding [2]: binds
Molecule: GFP-tagged c20orf27 (wild type) (from UniProt Q9GZN8 1-174)

binding (GFP-tagged RASSF9): binds | binding (GFP-tagged RASSF7): binds
B1: ASPP2 (protein, UniProt Q13625 1-1128)
chain: MMPMFLTVYLSNNEQHFTEVPVTPETICRDVVDLCKEPGESDCHLAEVWCGSERPVADNERMFDVLQRFGSQRNEVRFFLRHERPPGRDIVSGPRSQDPSLKRNGVKVPGEYRRKENGVNSPRMDLTLAELQEMASRQQQQIEAQQQLLATKEQRLKFLKQQDQRQQQQVAEQEKLKRLKEIAENQEAKLKKVRALKGHVEQKRLSNGKLVEEIEQMNNLFQQKQRELVLAVSKVEELTRQLEMLKNGRIDSHHDNQSAVAELDRLYKELQLRNKLNQEQNAKLQQQRECLNKRNSEVAVMDKRVNELRDRLWKKKAALQQKENLPVSSDGNLPQQAASAPSRVAAVGPYIQSSTMPRMPSRPELLVKPALPDGSLVIQASEGPMKIQTLPNMRSGAASQTKGSKIHPVGPDWSPSNADLFPSQGSASVPQSTGNALDQVDDGEVPLREKEKKVRPFSMFDAVDQSNAPPSFGTLRKNQSSEDILRDAQVANKNVAKVPPPVPTKPKQINLPYFGQTNQPPSDIKPDGSSQQLSTVVPSMGTKPKPAGQQPRVLLSPSIPSVGQDQTLSPGSKQESPPAAAVRPFTPQPSKDTLLPPFRKPQTVAASSIYSMYTQQQAPGKNFQQAVQSALTKTHTRGPHFSSVYGKPVIAAAQNQQQHPENIYSNSQGKPGSPEPETEPVSSVQENHENERIPRPLSPTKLLPFLSNPYRNQSDADLEALRKKLSNAPRPLKKRSSITEPEGPNGPNIQKLLYQRTTIAAMETISVPSYPSKSASVTASSESPVEIQNPYLHVEPEKEVVSLVPESLSPEDVGNASTENSDMPAPSPGLDYEPEGVPDNSPNLQNNPEEPNPEAPHVLDVYLEEYPPYPPPPYPSGEPEGPGEDSVSMRPPEITGQVSLPPGKRTNLRKTGSERIAHGMRVKFNPLALLLDSSLEGEFDLVQRIIYEVDDPSLPNDEGITALHNAVCAGHTEIVKFLVQFGVNVNAADSDGWTPLHCAASCNNVQVCKFLVESGAAVFAMTYSDMQTAADKCEEMEEGYTQCSQFLYGVQEKMGIMNKGVIYALWDYEPQNDDELPMKEGDCMTIIHREDEDEIEWWWARLNDKEGYVPRNLLGLYPRIKPRQRSLA

binding [6]: binds | binding [7]: binds
B2: PNUTS (protein, UniProt Q96QC0 1-940)
chain: MGSGPIDPKELLKGLDSFLNRDGEVKSVDGISKIFSLMKEARKMVSRCTYLNILLQTRSPEILVKFIDVGGYKLLNNWLTYSKTTNNIPLLQQILLTLQHLPLTVDHLKQNNTAKLVKQLSKSSEDEELRKLASVLVSDWMAVIRSQSSTQPAEKDKKKRKDEGKSRTTLPERPLTEVKAETRAEEAPEKKREKPKSLRTTAPSHAKFRSTGLELETPSLVPVKKNASTVVVSDKYNLKPIPLKRQSNVAAPGDATPPAEKKYKPLNTTPNATKEIKVKIIPPQPMEGLGFLDALNSAPVPGIKIKKKKKVLSPTAAKPSPFEGKTSTEPSTAKPSSPEPAPPSEAMDADRPGTPVPPVEVPELMDTASLEPGALDAKPVESPGDPNQLTRKGRKRKSVTWPEEGKLREYFYFELDETERVNVNKIKDFGEAAKREILSDRHAFETARRLSHDNMEEKVPWVCPRPLVLPSPLVTPGSNSQERYIQAEREKGILQELFLNKESPHEPDPEPYEPIPPKLIPLDEECSMDETPYVETLEPGGSGGSPDGAGGSKLPPVLANLMGSMGAGKGPQGPGGGGINVQEILTSIMGSPNSHPSEELLKQPDYSDKIKQMLVPHGLLGPGPIANGFPPGGPGGPKGMQHFPPGPGGPMPGPHGGPGGPVGPRLLGPPPPPRGGDPFWDGPGDPMRGGPMRGGPGPGPGPYHRGRGGRGGNEPPPPPPPFRGARGGRSGGGPPNGRGGPGGGMVGGGGHRPHEGPGGGMGNSSGHRPHEGPGGGMGSGHRPHEGPGGSMGGGGGHRPHEGPGGGISGGSGHRPHEGPGGGMGAGGGHRPHEGPGGSMGGSGGHRPHEGPGHGGPHGHRPHDVPGHRGHDHRGPPPHEHRGHDGPGHGGGGHRGHDGGHSHGGDMSNRPVCRHFMMKGNCRYENNCAFYHPGVNGPPLP

binding [6]: binds | binding [7]: binds
B3: SDS22 (protein, UniProt Q15435 1-360)
chain: MAAERGAGQQQSQEMMEVDRRVESEESGDEEGKKHSSGIVADLSEQSLKDGEERGEEDPEEEHELPVDMETINLDRDAEDVDLNHYRIGKIEGFEVLKKVKTLCLRQNLIKCIENLEELQSLRELDLYDNQIKKIENLEALTELEILDISFNLLRNIEGVDKLTRLKKLFLVNNKISKIENLSNLHQLQMLELGSNRIRAIENIDTLTNLESLFLGKNKITKLQNLDALTNLTVLSMQSNRLTKIEGLQNLVNLRELYLSHNGIEVIEGLENNNKLTMLDIASNRIKKIENISHLTELQEFWMNDNLLESWSDLDELKGARSLETVYLERNPLQKDPQYRRKVMLALPSVRQIDATFVRF
